The other results are listed elsewhere or left out.

By UniProt entry, the sequences of proteins in these tests, tags left out.
UniProt Q0JBA9, entry or part of it: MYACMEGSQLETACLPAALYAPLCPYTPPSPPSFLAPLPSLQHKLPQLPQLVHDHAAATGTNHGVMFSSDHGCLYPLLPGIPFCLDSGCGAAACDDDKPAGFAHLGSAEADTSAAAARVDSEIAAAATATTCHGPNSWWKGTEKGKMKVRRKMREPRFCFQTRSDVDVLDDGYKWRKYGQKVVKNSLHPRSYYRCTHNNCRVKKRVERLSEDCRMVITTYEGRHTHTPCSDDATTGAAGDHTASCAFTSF

For the test, the target named is OsWRKY34 (Oryza sativa, UniProt Q0JBA9 1-250). Kind of test: protein-binding microarray (RPBM); PBS, 2% BSA, 51.3 ng/ul salmon testes DNA, 50 uM zinc acetate, 200 nM TF, 25 C, 1 h; high values mean tight binding. To be noted: protein: recombinant; tags: N-terminal polyhistidine and DsRed monomer fusion (pET32a); label: CyDye5-dUTP incorporated in the synthesized complementary strand; 3' TTTTT single-stranded linker to array surface; dsDNA, one strand shown. Put shortly:
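In PBS with 2% BSA, salmon testes DNA and 50 µM zinc acetate, 200 nM protein was incubated on a custom Agilent array at 25 °C for 1 h and then washed off. The array had been made double-stranded by primer extension with Cy5-dUTP and blocked with 2% BSA. The proteins were transcription factors fused N-terminally to polyhistidine and DsRed, expressed in E. coli BL21-CodonPlus and purified on Ni–NTA. The binding signal is per-feature fluorescence intensity (arbitrary units) from an Axon 4000B scanner.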
For “TGTTTGGGTTGAGCTTCACCAGCTTCTCCGCCACCGCCGACGGAGTCACCTAGTGCAG”, the binding signal was 9600 fluorescence intensity (a.u.).
As for “CCTCGTCGTCGTCGTCTCCACCCAATCTCTCCCATTTCCACGGAGTCACCTAGTGCAG”, the binding signal was 10200 fluorescence intensity (a.u.).
To “ATCCTCACCTCACCTCCGCCATTTTCACTGCGGGCTTCCGCGGAGTCACCTAGTGCAG” belongs 11300 fluorescence intensity (a.u.).
In the case of “CCATACCATGCGATGCCGGAGCCAACCCTTCCCATCAAATCGGAGTCACCTAGTGCAG” it was 9120 fluorescence intensity (a.u.); in that of “CAACACTGACATTGATTCTCAATTATTACTGCAGATGATGCGGAGTCACCTAGTGCAG”, 8180 fluorescence intensity (a.u.).
As to “GCCACTTTTATTACAGCCATGCAGTATGTTCTTTTTTTTTCGGAGTCACCTAGTGCAG”, the binding signal is 9480 fluorescence intensity (a.u.).
Turning to “TCTCCTCTGACCTGCACCATACCCGGCCTACCTCACCTTCCGGAGTCACCTAGTGCAG”, the binding signal was 10200 fluorescence intensity (a.u.).
In the case of “ACCATATATTTTTCCTGCAATCCTGCCTTTATCTTGTTTCCGGAGTCACCTAGTGCAG” it was 9080 fluorescence intensity (a.u.); in that of “TTTCCTTCCTACTTTTCTCAAGGAATCTGCTTCCAACCACCGGAGTCACCTAGTGCAG”, 8110 fluorescence intensity (a.u.); in that of “CCACGGTGTCACCTCGCGCCCCGCCGCTTTCTCTCCTCTTCGGAGTCACCTAGTGCAG”, 10100 fluorescence intensity (a.u.).
In the case of “TCACTAGTTAGCAAGTCCTACCTATGCGGCCATCCAAGCACGGAGTCACCTAGTGCAG” it was 9170 fluorescence intensity (a.u.); in that of “TACCGCAACGGCAGTTTCCGTATTCACCTCCCCATACTTTCGGAGTCACCTAGTGCAG”, 8340 fluorescence intensity (a.u.).
For the sequence “GGCTTTCCTTCCTGAAGCCGTCCTCATCGTCATCATCTCGCGGAGTCACCTAGTGCAG”, the binding signal is 8320 fluorescence intensity (a.u.).
To “ATACAGTTACCTTTTTCGCATCTTTTCCCAAGCCCGTAGTCGGAGTCACCTAGTGCAG” belongs 9350 fluorescence intensity (a.u.); to “GGTTCATCTATACTCGACCTTATCATATGTTCCATTTCTACGGAGTCACCTAGTGCAG”, 9140 fluorescence intensity (a.u.); to “CAGCAGCCTCCAGCACTTGGTCACACACGTCACTCTACCACGGAGTCACCTAGTGCAG”, 8460 fluorescence intensity (a.u.).
Turning to “TCACCTTTTAGGTGATAAAGGTGACGGTTCTTTTGGTTTTCGGAGTCACCTAGTGCAG”, the binding signal was 8260 fluorescence intensity (a.u.).
To “GACCTATTGTGACCGGTTTTGATTAGTTAAGGGACGCCGGCGGAGTCACCTAGTGCAG” belongs 9240 fluorescence intensity (a.u.); to “GCCTCGTATTCTCGTGTAATGGCATACTACACCTACTCTACGGAGTCACCTAGTGCAG”, 8780 fluorescence intensity (a.u.).
In the case of “CACTCTACAAGGTACCACAGTACATCTTTTCTTTTTTTTTCGGAGTCACCTAGTGCAG”, the binding signal was 9210 fluorescence intensity (a.u.).
For the sequence “AACATACTCGACTACATGCTTGTTCCTATTGTTATCTACACGGAGTCACCTAGTGCAG”, the binding signal is 12200 fluorescence intensity (a.u.).
In the case of “GCCGTCCCGCCCACCGCCGCCACCTACGCGCTCTACCTCTCGGAGTCACCTAGTGCAG” it was 8420 fluorescence intensity (a.u.); in that of “CAGACTTGAGAGGCTAATTTTTTCGTACCTGTAGCTTTATCGGAGTCACCTAGTGCAG”, 8140 fluorescence intensity (a.u.).
On to “CGACGCAGACACTTGTAGCATTAGATTTCATTGTTTTGTCCGGAGTCACCTAGTGCAG”, for which the binding signal is 9350 fluorescence intensity (a.u.).
Take “TGGGTTGTGGCAGTGTCTTATAAGGCTATATTAAGTCTATCGGAGTCACCTAGTGCAG”: the binding signal is 8060 fluorescence intensity (a.u.).
In the case of “AGACATCGGAATCCGGACGCTATCCTTCTCGTCTTCTCGTCGGAGTCACCTAGTGCAG” it was 10700 fluorescence intensity (a.u.); in that of “GAGGGGTGGCAGTTGTCGGAGCTAGGGGAGGGAGAGGCGGCGGAGTCACCTAGTGCAG”, 13500 fluorescence intensity (a.u.); in that of “GCCTTCATCATATTCCCAGCTGGTAACTCTATCCATTGACCGGAGTCACCTAGTGCAG”, 16400 fluorescence intensity (a.u.).
Take “TTCGTCAGTCATCTGAGCAAGATTTTCTTTGCTATTCCAGCGGAGTCACCTAGTGCAG”: the binding signal was 8060 fluorescence intensity (a.u.).
“ACAAACCCACTATGTTACTATATGAATCATACCTTGTTCGCGGAGTCACCTAGTGCAG”: the binding signal was 8310 fluorescence intensity (a.u.).
On to “GTCCGCCTCTAGCCATTGCATCGCCATCGCCCATGCGTGACGGAGTCACCTAGTGCAG”, for which the binding signal is 8560 fluorescence intensity (a.u.).
As to “TTTTCCGTTGTAACGCATGGGTATCCTCCTAGTAATTTCTCGGAGTCACCTAGTGCAG”, the binding signal is 8910 fluorescence intensity (a.u.).
For “GCCTCGCCTCGCCTCGCTCTCGCGCTTCGAATCCCCACGCCGGAGTCACCTAGTGCAG”, the binding signal is 9130 fluorescence intensity (a.u.).
As to “GGGCGGGTCTTCTCACGCAAGTCCGGGGATGGTTGCCGCTCGGAGTCACCTAGTGCAG”, the binding signal was 8480 fluorescence intensity (a.u.).
To “GGGTCCCTCGACATTGCATTGCCTCTTCTTCTTGTTCCAACGGAGTCACCTAGTGCAG” belongs 8780 fluorescence intensity (a.u.); to “TCTCTTGTTGTATGATACATCTTTTTAAATATATAGTTTTCGGAGTCACCTAGTGCAG”, 10900 fluorescence intensity (a.u.); to “AATTTAAATTTAAGTTTAGATTGTTTGTGTGTTTTTTTTTCGGAGTCACCTAGTGCAG”, 8760 fluorescence intensity (a.u.).
As to “CTACTCCTCCATCTATCTGTACCGGATTATCCTAATCGCGCGGAGTCACCTAGTGCAG”, the binding signal was 8040 fluorescence intensity (a.u.).
In the case of “CATGGGAGGTGTCAACGTTTTTTTTTTATTGTTTTTTTTTCGGAGTCACCTAGTGCAG” it was 9240 fluorescence intensity (a.u.); in that of “CCAAAAACACTCACTCGGCCCACATCACGCCACCACCCCGCGGAGTCACCTAGTGCAG”, 9750 fluorescence intensity (a.u.); in that of “TTTGTGCTGTATTTGGCTTCCATCACTGTAACATTTCAATCGGAGTCACCTAGTGCAG”, 9140 fluorescence intensity (a.u.).
For the sequence “TTGTCAGAGTTGATGAGTAGCTGTCCTCCTAGCGCTTTCGCGGAGTCACCTAGTGCAG”, the binding signal is 9950 fluorescence intensity (a.u.).

Values taken from PMC7819943, “Rice protein-binding microarrays: a tool to detect cis-acting elements near promoter regions in rice”.
